Where a chain is given by its changes, count along the chain named. Names and notes keep the numbering of the source. These are yes or no findings as the source states them, for the method shown. Some results given as binding are weak or reduced against the parent protein; the word gives no strength.

The chains behind the UniProt entries cited, without tags or fusion partners. Residues count along the entry.
UniProt P02545, residues 411-566: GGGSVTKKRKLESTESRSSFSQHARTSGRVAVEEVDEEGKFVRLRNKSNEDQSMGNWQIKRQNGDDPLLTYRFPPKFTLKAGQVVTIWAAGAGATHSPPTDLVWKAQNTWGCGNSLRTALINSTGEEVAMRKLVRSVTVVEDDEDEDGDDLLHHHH

Results on five molecules are retold here after PMC8053085, “Di-phosphorylated BAF shows altered structural dynamics and binding to DNA, but interacts with its nuclear envelope partners” (Nucleic Acids Research, 2021).

Experiment [1] addresses T1, Di-phosphorylated BAF (BAF phosphorylated by VRK1 on Thr3 and Ser4) (human) (UniProt O75531).
T1 sequence (chain, phosphothreonine at 3, phosphoserine at 4): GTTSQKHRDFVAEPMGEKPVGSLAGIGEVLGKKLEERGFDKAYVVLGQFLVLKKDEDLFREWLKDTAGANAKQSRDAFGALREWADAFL
The experiment can be described thus: NMR titration; 2D 1H-15N HSQC of 80 μM 15N LamIgF alone, with 160 μM BAF S4E or pBAF, then 80 μM EmN or LEM; control with 80 μM EmN alone; 50 mM HEPES pH 7.4, 100 mM NaCl, 20°C, 700 MHz; loss of peak intensity; both purified.

The target in experiment [2] is Complex of pBAF and LamIgF (pBAF-Igfold complex) (human) (UniProt O75531+P02545). Described as above.
For experiment [3], the target named is T2, BAF S4E (phosphomimetic variant of the BAF construct) (human) (UniProt O75531).
T2 sequence: T1 sequence (chain, phosphothreonine at 3, phosphoserine at 4) with S4E
Described as above.

Experiment [4] has as its target T1, Di-phosphorylated BAF (BAF phosphorylated by VRK1 on Thr3 and Ser4) (human). The experiment can be described thus: crystal structure; pBAF-EmN complex purified by gel filtration, 2 mg/ml; sitting drop, 0.1 M HEPES pH 7.5, PEG 6000 25%; 1.4 Å; both purified. On the technique in general: Size exclusion chromatography separates by hydrodynamic size, large species first.

Experiment [5] deals with IgFold domain of human lamin A/C from amino acid 411 to amino acid 566 (human) (UniProt P02545). The experiment in a line: NMR titration; 2D 1H-15N HSQC of 80 μM 15N LamIgF alone, with 160 μM BAF S4E or pBAF, then 80 μM EmN or LEM; control with 80 μM EmN alone; 50 mM HEPES pH 7.4, 100 mM NaCl, 20°C, 700 MHz; loss of peak intensity; both purified.
The target in experiment [6] is T1, Di-phosphorylated BAF (BAF phosphorylated by VRK1 on Thr3 and Ser4) (human). The experiment in a line: crystal structure; pBAF dimer alone, 20 mg/ml; sitting drop, 0.2 M sodium fluoride, 20% PEG 3350; 3.2 Å; both purified.

B1: LEM domain of human emerin from amino acid 1 to amino acid 46 (domain or fragment, UniProt P50402 1-46, looked up)
chain: MDNYADLSDTELTTLLRRYNIPHGPVVGSTRRLYEKKIFEYETQRR
notes: human emerin, residues 1-46 (LEM domain); also called emerin LEM domain; LEM fragment
Turning to B1, the binding entry in experiment [1] and in experiment [2] was “binds” each time.

B2: Nucleoplasmic region of human emerin from amino acid 1 to amino acid 187 (domain or fragment, UniProt P50402 1-187)
chain: MDNYADLSDTELTTLLRRYNIPHGPVVGSTRRLYEKKIFEYETQRRRLSPPSSSAASSYSFSDLNSTRGDADMYDLPKKEDALLYQSKGYNDDYYEESYFTTRTYGEPESAGPSRAVRQSVTSFPDADAFHHQVHDDDLLSSSEEECKDRERPMYGRDSAYQSITHYRPVSASRSSLDLSYYPTSSS
Regarding B2, the binding entry in experiment [1], in experiment [2], in experiment [3] and in experiment [4] was “binds” in each case.

B3: Complex between BAF S4E and EmN (complex, UniProt O75531 1-89; P50402 1-187)
chain 1: T1 sequence (chain, phosphothreonine at 3, phosphoserine at 4) with S4E
chain 2: B2 chain
On to B3, for which the binding entry in experiment [5] is listed as “binds”.

B4: BAF S4E (phosphomimetic variant of the BAF construct) (protein, UniProt O75531 1-89)
chain: T1 sequence (chain, phosphothreonine at 3, phosphoserine at 4) with S4E
Consider B4, for which the binding result in experiment [5] was “binds”.

B5: Di-phosphorylated BAF (BAF phosphorylated by VRK1 on Thr3 and Ser4) (natural protein, human, UniProt O75531 1-89, looked up)
chain: T1 sequence (chain, phosphothreonine at 3, phosphoserine at 4)
modifications: phosphothreonine at 3, phosphoserine at 4
notes: human barrier-to-autointegration factor (BANF1), an 89-aa protein; residue 1 is a glycine left by the TEV site instead of the native methionine; all four cysteines mutated into alanine; phosphorylated on Thr3 and Ser4; Same construct as m1, then phosphorylated; also called pBAF; not shown: His tag, N-terminal, cleaved
Consider B5, for which the binding result in experiment [5] and in experiment [6] was “binds” in each case.
